Source: article PMC1828611
These are yes or no findings as the source states them, for the method shown. Binding seen in cells or lysates may run through a third protein. Some entries that bind do so weakly or less than the wild type. For part of these data: Sequences can lack the tags named with a protein.

Tests used:
[1] = target: T1, Hpo-Myc (Drosophila melanogaster) (UniProt Q8T0S6); assay: co-IP; Hpo-Myc, Sav-HA and GFP-dRASSF cotransfected in Kc cells; anti-Myc, anti-HA, anti-dRASSF or control (anti-Flag) immunoprecipitates blotted for GFP-dRASSF, Sav-HA, Hpo-Myc and phospho-MST1
T1 sequence: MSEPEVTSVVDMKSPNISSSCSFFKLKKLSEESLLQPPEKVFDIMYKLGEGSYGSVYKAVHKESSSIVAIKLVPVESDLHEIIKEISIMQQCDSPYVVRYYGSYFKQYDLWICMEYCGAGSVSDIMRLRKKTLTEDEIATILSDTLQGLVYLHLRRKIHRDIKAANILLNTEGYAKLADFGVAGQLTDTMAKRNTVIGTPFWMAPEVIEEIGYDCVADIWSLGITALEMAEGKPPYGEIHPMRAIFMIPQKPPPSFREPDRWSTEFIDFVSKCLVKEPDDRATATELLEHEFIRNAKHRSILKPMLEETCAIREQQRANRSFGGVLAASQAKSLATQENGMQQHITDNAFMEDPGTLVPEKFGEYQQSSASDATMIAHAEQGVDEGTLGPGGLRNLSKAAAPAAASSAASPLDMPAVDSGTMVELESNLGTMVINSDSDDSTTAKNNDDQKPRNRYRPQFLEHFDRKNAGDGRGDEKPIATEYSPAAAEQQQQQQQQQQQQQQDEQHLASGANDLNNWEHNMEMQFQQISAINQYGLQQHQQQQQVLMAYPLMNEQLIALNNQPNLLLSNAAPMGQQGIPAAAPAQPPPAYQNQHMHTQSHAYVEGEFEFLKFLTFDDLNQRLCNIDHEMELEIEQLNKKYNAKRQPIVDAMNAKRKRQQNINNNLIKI

[2] = target: T2, Sav-HA (Drosophila melanogaster) (UniProt Q9VCR6); assay: as above
T2 sequence: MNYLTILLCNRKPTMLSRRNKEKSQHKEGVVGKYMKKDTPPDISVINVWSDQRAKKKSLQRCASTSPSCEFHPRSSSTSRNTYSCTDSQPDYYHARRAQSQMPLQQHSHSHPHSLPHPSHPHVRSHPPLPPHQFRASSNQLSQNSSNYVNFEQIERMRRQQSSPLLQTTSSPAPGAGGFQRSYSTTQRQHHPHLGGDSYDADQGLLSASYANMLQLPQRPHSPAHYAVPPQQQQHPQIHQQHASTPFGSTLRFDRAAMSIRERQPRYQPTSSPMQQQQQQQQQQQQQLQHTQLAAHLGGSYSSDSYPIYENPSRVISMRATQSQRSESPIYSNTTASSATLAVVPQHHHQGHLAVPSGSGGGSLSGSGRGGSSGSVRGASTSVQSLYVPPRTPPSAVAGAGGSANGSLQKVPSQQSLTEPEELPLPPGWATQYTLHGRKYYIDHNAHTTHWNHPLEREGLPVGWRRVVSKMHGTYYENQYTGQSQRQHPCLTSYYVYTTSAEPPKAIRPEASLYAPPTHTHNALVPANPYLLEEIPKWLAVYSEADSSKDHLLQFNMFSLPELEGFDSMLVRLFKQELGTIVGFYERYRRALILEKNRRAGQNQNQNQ

[3] = target: T3, Salvador (Sav), endogenous (Drosophila melanogaster (endogenous in Kc cells)) (UniProt Q9VCR6); assay: co-IP; endogenous proteins immunoprecipitated from Kc cell lysates with dRASSF antibodies (or Sav antibodies, Figure S2C); control Myc antibodies; blotted with Hpo66 and dRASSF antibodies
T3 sequence: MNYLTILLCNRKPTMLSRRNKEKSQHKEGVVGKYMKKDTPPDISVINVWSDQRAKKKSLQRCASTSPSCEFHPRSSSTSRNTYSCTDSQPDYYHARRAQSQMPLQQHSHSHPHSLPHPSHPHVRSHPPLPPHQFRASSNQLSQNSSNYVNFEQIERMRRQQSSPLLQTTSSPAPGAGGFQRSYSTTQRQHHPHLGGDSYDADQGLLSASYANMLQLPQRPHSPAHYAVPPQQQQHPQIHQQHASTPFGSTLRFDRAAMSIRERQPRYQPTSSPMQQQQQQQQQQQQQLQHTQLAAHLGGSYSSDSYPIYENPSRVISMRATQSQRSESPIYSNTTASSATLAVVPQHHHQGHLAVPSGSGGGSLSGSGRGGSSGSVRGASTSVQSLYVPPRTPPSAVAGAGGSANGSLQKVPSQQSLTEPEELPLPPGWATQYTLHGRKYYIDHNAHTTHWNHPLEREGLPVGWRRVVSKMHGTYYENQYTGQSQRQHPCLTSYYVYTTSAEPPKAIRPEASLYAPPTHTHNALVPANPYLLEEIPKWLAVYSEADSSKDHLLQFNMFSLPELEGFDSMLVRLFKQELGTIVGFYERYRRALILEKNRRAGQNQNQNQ

B1: Sav-HA (protein, UniProt Q9VCR6 1-608)
chain: MNYLTILLCNRKPTMLSRRNKEKSQHKEGVVGKYMKKDTPPDISVINVWSDQRAKKKSLQRCASTSPSCEFHPRSSSTSRNTYSCTDSQPDYYHARRAQSQMPLQQHSHSHPHSLPHPSHPHVRSHPPLPPHQFRASSNQLSQNSSNYVNFEQIERMRRQQSSPLLQTTSSPAPGAGGFQRSYSTTQRQHHPHLGGDSYDADQGLLSASYANMLQLPQRPHSPAHYAVPPQQQQHPQIHQQHASTPFGSTLRFDRAAMSIRERQPRYQPTSSPMQQQQQQQQQQQQQLQHTQLAAHLGGSYSSDSYPIYENPSRVISMRATQSQRSESPIYSNTTASSATLAVVPQHHHQGHLAVPSGSGGGSLSGSGRGGSSGSVRGASTSVQSLYVPPRTPPSAVAGAGGSANGSLQKVPSQQSLTEPEELPLPPGWATQYTLHGRKYYIDHNAHTTHWNHPLEREGLPVGWRRVVSKMHGTYYENQYTGQSQRQHPCLTSYYVYTTSAEPPKAIRPEASLYAPPTHTHNALVPANPYLLEEIPKWLAVYSEADSSKDHLLQFNMFSLPELEGFDSMLVRLFKQELGTIVGFYERYRRALILEKNRRAGQNQNQNQ
**Q.** Which binding [1] does the source give for B1 here?
**A.** binds

B2: Hpo-Myc (protein, UniProt Q8T0S6 1-669)
chain: MSEPEVTSVVDMKSPNISSSCSFFKLKKLSEESLLQPPEKVFDIMYKLGEGSYGSVYKAVHKESSSIVAIKLVPVESDLHEIIKEISIMQQCDSPYVVRYYGSYFKQYDLWICMEYCGAGSVSDIMRLRKKTLTEDEIATILSDTLQGLVYLHLRRKIHRDIKAANILLNTEGYAKLADFGVAGQLTDTMAKRNTVIGTPFWMAPEVIEEIGYDCVADIWSLGITALEMAEGKPPYGEIHPMRAIFMIPQKPPPSFREPDRWSTEFIDFVSKCLVKEPDDRATATELLEHEFIRNAKHRSILKPMLEETCAIREQQRANRSFGGVLAASQAKSLATQENGMQQHITDNAFMEDPGTLVPEKFGEYQQSSASDATMIAHAEQGVDEGTLGPGGLRNLSKAAAPAAASSAASPLDMPAVDSGTMVELESNLGTMVINSDSDDSTTAKNNDDQKPRNRYRPQFLEHFDRKNAGDGRGDEKPIATEYSPAAAEQQQQQQQQQQQQQQDEQHLASGANDLNNWEHNMEMQFQQISAINQYGLQQHQQQQQVLMAYPLMNEQLIALNNQPNLLLSNAAPMGQQGIPAAAPAQPPPAYQNQHMHTQSHAYVEGEFEFLKFLTFDDLNQRLCNIDHEMELEIEQLNKKYNAKRQPIVDAMNAKRKRQQNINNNLIKI
**Q.** B2 was tested. Which binding [2] did it give?
**A.** binds

B3: Hippo (Hpo), endogenous (protein, UniProt Q8T0S6 1-669)
chain: MSEPEVTSVVDMKSPNISSSCSFFKLKKLSEESLLQPPEKVFDIMYKLGEGSYGSVYKAVHKESSSIVAIKLVPVESDLHEIIKEISIMQQCDSPYVVRYYGSYFKQYDLWICMEYCGAGSVSDIMRLRKKTLTEDEIATILSDTLQGLVYLHLRRKIHRDIKAANILLNTEGYAKLADFGVAGQLTDTMAKRNTVIGTPFWMAPEVIEEIGYDCVADIWSLGITALEMAEGKPPYGEIHPMRAIFMIPQKPPPSFREPDRWSTEFIDFVSKCLVKEPDDRATATELLEHEFIRNAKHRSILKPMLEETCAIREQQRANRSFGGVLAASQAKSLATQENGMQQHITDNAFMEDPGTLVPEKFGEYQQSSASDATMIAHAEQGVDEGTLGPGGLRNLSKAAAPAAASSAASPLDMPAVDSGTMVELESNLGTMVINSDSDDSTTAKNNDDQKPRNRYRPQFLEHFDRKNAGDGRGDEKPIATEYSPAAAEQQQQQQQQQQQQQQDEQHLASGANDLNNWEHNMEMQFQQISAINQYGLQQHQQQQQVLMAYPLMNEQLIALNNQPNLLLSNAAPMGQQGIPAAAPAQPPPAYQNQHMHTQSHAYVEGEFEFLKFLTFDDLNQRLCNIDHEMELEIEQLNKKYNAKRQPIVDAMNAKRKRQQNINNNLIKI
**Q.** Which binding [3] does the source give for B3 here?
**A.** binds
